Data on eleven molecules can be found in paper PMC7493855.

Sequences of proteins named here, by UniProt entry; tags and fusion partners are left off.
UniProt Q3URK3: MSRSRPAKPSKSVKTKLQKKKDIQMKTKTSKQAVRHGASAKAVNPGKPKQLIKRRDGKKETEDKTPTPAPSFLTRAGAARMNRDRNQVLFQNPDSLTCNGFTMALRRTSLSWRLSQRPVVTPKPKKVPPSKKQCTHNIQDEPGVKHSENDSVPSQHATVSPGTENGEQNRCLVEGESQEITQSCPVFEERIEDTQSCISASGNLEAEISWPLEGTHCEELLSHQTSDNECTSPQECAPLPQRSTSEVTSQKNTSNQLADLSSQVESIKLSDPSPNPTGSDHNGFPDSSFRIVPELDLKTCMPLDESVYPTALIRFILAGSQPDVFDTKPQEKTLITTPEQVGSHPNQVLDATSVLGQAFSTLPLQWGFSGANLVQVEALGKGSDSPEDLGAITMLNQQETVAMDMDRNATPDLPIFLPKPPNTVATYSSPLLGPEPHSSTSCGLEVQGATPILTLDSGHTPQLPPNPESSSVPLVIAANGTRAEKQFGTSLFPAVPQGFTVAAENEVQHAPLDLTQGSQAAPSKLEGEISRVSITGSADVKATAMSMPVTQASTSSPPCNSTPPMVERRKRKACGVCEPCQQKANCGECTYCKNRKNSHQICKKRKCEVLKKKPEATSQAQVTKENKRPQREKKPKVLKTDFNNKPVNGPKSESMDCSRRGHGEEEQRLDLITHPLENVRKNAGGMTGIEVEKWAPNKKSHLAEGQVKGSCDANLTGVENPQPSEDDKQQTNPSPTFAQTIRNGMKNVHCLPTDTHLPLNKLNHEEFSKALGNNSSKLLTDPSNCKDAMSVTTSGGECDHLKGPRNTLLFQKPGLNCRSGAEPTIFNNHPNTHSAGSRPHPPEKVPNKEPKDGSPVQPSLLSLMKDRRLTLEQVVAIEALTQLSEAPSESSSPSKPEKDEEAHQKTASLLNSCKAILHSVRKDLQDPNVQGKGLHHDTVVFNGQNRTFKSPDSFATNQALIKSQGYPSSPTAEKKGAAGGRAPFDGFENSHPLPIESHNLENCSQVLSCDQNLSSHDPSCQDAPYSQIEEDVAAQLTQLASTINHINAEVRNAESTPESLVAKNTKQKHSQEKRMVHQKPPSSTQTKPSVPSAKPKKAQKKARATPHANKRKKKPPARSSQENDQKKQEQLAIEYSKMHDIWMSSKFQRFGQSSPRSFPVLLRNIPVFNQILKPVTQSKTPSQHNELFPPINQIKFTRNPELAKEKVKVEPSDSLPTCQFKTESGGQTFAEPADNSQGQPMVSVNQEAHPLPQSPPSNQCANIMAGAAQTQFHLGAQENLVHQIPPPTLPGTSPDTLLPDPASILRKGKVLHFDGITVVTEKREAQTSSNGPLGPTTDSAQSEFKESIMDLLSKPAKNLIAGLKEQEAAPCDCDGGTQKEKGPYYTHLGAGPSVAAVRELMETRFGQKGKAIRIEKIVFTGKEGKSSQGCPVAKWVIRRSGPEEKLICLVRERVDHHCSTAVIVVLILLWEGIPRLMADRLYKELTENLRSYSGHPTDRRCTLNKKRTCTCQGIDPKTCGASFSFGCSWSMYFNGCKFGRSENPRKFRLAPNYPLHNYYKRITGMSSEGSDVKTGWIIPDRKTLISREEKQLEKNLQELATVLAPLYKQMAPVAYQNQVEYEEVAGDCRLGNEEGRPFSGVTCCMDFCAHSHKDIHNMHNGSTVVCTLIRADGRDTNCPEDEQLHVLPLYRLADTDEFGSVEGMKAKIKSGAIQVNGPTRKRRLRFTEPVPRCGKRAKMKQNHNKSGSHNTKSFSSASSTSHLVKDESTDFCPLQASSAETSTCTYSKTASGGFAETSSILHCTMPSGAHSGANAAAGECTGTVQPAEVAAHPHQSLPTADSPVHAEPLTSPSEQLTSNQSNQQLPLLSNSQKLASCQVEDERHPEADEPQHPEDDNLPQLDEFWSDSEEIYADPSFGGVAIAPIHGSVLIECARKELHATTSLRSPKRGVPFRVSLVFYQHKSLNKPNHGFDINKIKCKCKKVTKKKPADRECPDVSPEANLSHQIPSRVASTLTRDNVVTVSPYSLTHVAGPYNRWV
UniProt Q91ZW3: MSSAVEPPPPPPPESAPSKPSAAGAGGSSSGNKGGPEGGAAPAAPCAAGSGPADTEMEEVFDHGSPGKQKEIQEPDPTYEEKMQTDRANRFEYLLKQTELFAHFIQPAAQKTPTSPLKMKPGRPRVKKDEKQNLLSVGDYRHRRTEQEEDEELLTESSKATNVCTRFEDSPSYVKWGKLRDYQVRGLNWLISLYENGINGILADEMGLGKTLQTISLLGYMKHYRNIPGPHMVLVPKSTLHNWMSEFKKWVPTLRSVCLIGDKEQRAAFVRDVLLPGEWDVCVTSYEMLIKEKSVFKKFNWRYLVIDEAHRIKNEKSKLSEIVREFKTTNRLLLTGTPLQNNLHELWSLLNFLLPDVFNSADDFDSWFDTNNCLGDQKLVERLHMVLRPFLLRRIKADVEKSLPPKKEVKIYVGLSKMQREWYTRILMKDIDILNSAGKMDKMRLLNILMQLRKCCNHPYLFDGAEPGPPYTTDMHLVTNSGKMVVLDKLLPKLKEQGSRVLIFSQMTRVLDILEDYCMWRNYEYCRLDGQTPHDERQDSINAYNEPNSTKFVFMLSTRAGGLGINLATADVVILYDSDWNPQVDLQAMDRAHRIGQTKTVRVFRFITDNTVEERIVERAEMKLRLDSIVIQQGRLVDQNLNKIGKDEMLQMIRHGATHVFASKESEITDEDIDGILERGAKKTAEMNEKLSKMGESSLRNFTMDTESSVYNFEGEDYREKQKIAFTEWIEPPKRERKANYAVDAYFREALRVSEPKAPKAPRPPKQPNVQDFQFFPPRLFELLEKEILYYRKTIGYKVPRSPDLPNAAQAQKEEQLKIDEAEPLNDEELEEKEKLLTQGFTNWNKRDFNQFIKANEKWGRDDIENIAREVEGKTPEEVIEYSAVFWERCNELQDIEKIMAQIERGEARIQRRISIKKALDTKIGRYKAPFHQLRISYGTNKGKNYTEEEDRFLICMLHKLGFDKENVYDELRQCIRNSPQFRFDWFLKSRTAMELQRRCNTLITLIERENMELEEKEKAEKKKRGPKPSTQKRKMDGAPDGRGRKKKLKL
UniProt P47955: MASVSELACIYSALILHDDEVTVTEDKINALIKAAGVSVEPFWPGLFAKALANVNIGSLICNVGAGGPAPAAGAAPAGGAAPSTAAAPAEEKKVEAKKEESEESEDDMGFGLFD
UniProt O09106: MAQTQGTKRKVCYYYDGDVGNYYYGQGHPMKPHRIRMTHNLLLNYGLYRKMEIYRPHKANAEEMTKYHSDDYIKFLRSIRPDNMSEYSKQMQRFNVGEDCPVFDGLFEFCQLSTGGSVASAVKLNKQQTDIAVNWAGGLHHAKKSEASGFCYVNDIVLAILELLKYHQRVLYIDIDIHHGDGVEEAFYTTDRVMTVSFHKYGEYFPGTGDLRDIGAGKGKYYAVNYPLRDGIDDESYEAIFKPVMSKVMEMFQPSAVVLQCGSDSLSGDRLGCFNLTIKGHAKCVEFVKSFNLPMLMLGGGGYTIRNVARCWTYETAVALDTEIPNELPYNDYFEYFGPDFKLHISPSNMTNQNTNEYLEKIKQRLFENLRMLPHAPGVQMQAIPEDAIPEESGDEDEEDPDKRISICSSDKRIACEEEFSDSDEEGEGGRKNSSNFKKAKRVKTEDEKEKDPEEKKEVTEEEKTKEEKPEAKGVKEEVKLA
UniProt Q9QYJ3: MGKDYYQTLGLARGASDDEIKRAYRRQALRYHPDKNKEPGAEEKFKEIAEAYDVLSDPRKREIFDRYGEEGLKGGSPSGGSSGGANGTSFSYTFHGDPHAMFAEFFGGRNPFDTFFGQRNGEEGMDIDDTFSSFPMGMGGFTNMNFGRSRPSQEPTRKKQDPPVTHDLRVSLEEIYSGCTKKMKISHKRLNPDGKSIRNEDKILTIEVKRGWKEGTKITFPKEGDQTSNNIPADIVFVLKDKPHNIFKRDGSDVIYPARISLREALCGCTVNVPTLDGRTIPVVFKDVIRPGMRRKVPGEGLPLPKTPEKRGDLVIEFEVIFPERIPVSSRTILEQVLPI

Assay [1] deals with TET1 (ten-eleven translocation 1), endogenous in oligodendrocyte lineage cells (mouse (endogenous in primary mouse OPCs and OLs)) (UniProt Q3URK3). The experiment in a line: affinity purification with mass spectrometry; IP of endogenous TET1 (rabbit anti-TET1, Catch and Release kit) from RIPA lysate of mouse mature OLs; normal IgG as control; SDS-PAGE, in-gel trypsin digestion, LC-MS/MS; done twice.

For assay [2] the target is unchanged. The assay can be described thus: affinity purification with mass spectrometry; IP of endogenous TET1 (rabbit anti-TET1, Catch and Release kit) from RIPA lysate of purified mouse OPCs; normal IgG as control; SDS-PAGE, in-gel trypsin digestion, LC-MS/MS; done twice.

These are yes or no findings as the source states them, for the method shown. In cells and extracts the contact can be indirect. Here binding means that the protein was enriched with, or labelled near, the bait; the list need not be complete.

For Smarca5 (from UniProt Q91ZW3 1-1051), the binding entry in assay [1] was “binds”. Consider Rplp1 (from UniProt P47955 1-114), for which, in assay [1], the binding result is “binds”.

In the case of “histone deacetylases 1 (HDAC1), endogenous in oligodendrocyte lineage cells (from UniProt O09106 1-482)”, the binding result in assay [1] was “binds”. Still for that read-out and setting: with Dnajb1 (from UniProt Q9QYJ3 1-340) the entry was “binds”.

B1: Eif2a (protein, UniProt Q8BJW6 1-581)
chain: MAPSTPLLTVRGSEGLYMVNGPPHFTESTVLPRESGRNCKVYTFSKDGTLFAWSNGEKVNIINVANKGLLHSFDLPKAVCLEFSPNNTVLATWQPYTTSKDGTAGTPNLQLYDMKTGACLKSFIQKKMQNWCPSWSDDEIICARNVNNEVHFFENNNFNTIANKLHLQKVNDFNLSPGTQPYKVAVYVPGSKGAPSFVRLYQYPNFAGPQAALANKSFFKADKVTMLWNKKATAVLVIASTEVDKTGASYYGEQTLHYIATNGESAVVQLPKNGPIYDVVWNSSSTEFCAVYGFMPAKATVFNLKCDPVFDFGTGPRNAAFYSPHGHILVLAGFGNLRGQMEVWDVKNYKLISKPVASDSTYFAWCPDGEHILTATCAPRLRVNNGYKIWHYTGSLLHKYDVPSNGELWQVSWQPFLDGIFPAKTIKYQAVPSEVPSEEPKVATAYRPPALRNKPVTNSKLHEEEPPQNMKPHPGSDKPLSKTALKNQRKHEAKKAAKQEARSDAAPTPVPQSAPRNTVTQSASGDPEVDKKIKNLKKKLKAIEQLKEQAAAGKQLEKNQLEKIQKETALLQELEDLELGV
Turning to B1, in assay [1], the binding result is “binds”.

B2: Dnajc2 (protein, UniProt P54103 1-621)
chain: MLLLPSAAEGQGTAITHALTSASSVCQVEPVGRWFEAFVKRRNRNASTSFQELEDKKELSEESEDEELQLEEFPMLKTLDPKDWKNQDHYAVLGLGHVRYTATQRQIKAAHKAMVLKHHPDKRKAAGEPIKEGDNDYFTCITKAYEMLSDPVKRRAFNSVDPTFDNSVPSKSEAKDNFFQVFSPVFERNSRWSNKKNVPKLGDMNSSFEDVDAFYSFWYNFDSWREFSYLDEEEKEKAECRDERKWIEKQNRATRAQRKKEEMNRIRTLVDNAYSCDPRIKKFKEEEKAKKEAEKKAKAEARRKEQEAKEKQRQAELEAVRLAKEKEEEEVRQQALLAKKEKDIQKKAIKKERQKLRNSCKSWNHFSDNEADRVKMMEEVEKLCDRLELASLQGLNEILASSTREVGKAALEKQIEEVNEQMRREKEEADARMRQASKNAEKSTGGSGSGSKNWSEDDLQLLIKAVNLFPAGTNSRWEVIANYMNIHSSSGVKRTAKDVISKAKSLQKLDPHQKDDINKKAFDKFKKEHGVASQADSAAPSERFEGPCIDSTPWTTEEQKLLEQALKTYPVNTPERWEKIAEAVPGRTKKDCMRRYKELVEMVKAKKAAQEQVLNASRARK
For the molecule B2, the binding result in assay [1] is given as “binds”.

B3: Acly (protein, UniProt Q91V92 1-1091)
chain: MSAKAISEQTGKELLYKYICTTSAIQNRFKYARVTPDTDWAHLLQDHPWLLSQSLVVKPDQLIKRRGKLGLVGVNLSLDGVKSWLKPRLGHEATVGKAKGFLKNFLIEPFVPHSQAEEFYVCIYATREGDYVLFHHEGGVDVGDVDAKAQKLLVGVDEKLNTEDIKRHLLVHAPEDKKEVLASFISGLFNFYEDLYFTYLEINPLVVTKDGVYILDLAAKVDATADYICKVKWGDIEFPPPFGREAYPEEAYIADLDAKSGASLKLTLLNPKGRIWTMVAGGGASVVYSDTICDLGGVNELANYGEYSGAPSEQQTYDYAKTILSLMTREKHPEGKILIIGGSIANFTNVAATFKGIVRAIRDYQGPLKEHEVTIFVRRGGPNYQEGLRVMGEVGKTTGIPIHVFGTETHMTAIVGMALGHRPIPNQPPTAAHTANFLLNASGSTSTPAPSRTASFSESRADEVAPAKKAKPAMPQGKSATLFSRHTKAIVWGMQTRAVQGMLDFDYVCSRDEPSVAAMVYPFTGDHKQKFYWGHKEILIPVFKNMADAMKKHPEVDVLINFASLRSAYDSTMETMNYAQIRTIAIIAEGIPEALTRKLIKKADQKGVTIIGPATVGGIKPGCFKIGNTGGMLDNILASKLYRPGSVAYVSRSGGMSNELNNIISRTTDGVYEGVAIGGDRYPGSTFMDHVLRYQDTPGVKMIVVLGEIGGTEEYKICRGIKEGRLTKPVVCWCIGTCATMFSSEVQFGHAGACANQASETAVAKNQALKEAGVFVPRSFDELGEIIQSVYEDLVAKGAIVPAQEVPPPTVPMDYSWARELGLIRKPASFMTSICDERGQELIYAGMPITEVFKEEMGIGGVLGLLWFQRRLPKYSCQFIEMCLMVTADHGPAVSGAHNTIICARAGKDLVSSLTSGLLTIGDRFGGALDAAAKMFSKAFDSGIIPMEFVNKMKKEGKLIMGIGHRVKSINNPDMRVQILKDFVKQHFPATPLLDYALEVEKITTSKKPNLILNVDGFIGVAFVDMLRNCGSFTREEADEYVDIGALNGIFVLGRSMGFIGHYLDQKRLKQGLYRHPWDDISYVLPEHMSM
On to B3, for which the binding entry in assay [2] is “binds”.

B4: Slf2 (protein, UniProt Q6P9P0 1-1278)
chain: MTRRCMPARPGFPSSPAPGSSPPRCHLRPGSTAPAAAGKRTESPGDRKQSIIDFFKPAAKQDKHMLDSPQKSNIKYRGNGLSITGTEQFERKLSSPKKLKPKRMSSEESPILEAFMKGGKEHHKDRGVHESRRPCMSLSKYLPKGAGIYAPSSYRLPKEIKAQKKKHQSPERRKSLFIHESNREKNDRDRGKNSEDSRKQATATEGDIFKHSSRSISSRSSLSRHHPGESTLGARFQLSLASYWREREQKKLRKEQMEQRINSENSFSEASNLSLKSSGVGKNCKPRHEHSKHTEAVPGKSNLSTLENGHLSRKRSSSDSWELSGSKQNKFSDKRTEELCGLRPEKHKRTYHTKSKRVLSREAPRHIPSERKVYQTHCTEDSWWCSALGRHSQGAGKTVSRGMSIASTLRLYLGRVISQLWKMDISQEKDHLQTRGNFQALNRINSPTKEQRNSVDSDLKSTKEPIIPKARESFLEKRPDTSHQREKFIRHIALKTPGGVLRLEDIAKEPEDETDRSSADSAPSNAGHHSSRNSDQVHSASTKETKIQKPHLPLPQEKSTIKRASNLQKNKPAGSVTSKETKLPLLSHVPSAVSSRVPLNAKNCTLPVPKKDKERSSSKERSGHSTESSKHKEHRAKTIKAVSNESSGKNSGGSLHSEYAPPTASPPAALEVVPSVPSPAAPSDKESSGNSNAGSNALKRKFRGDFDSDEESLGYTLESDEEEETLKSLEEIMALNFSRTPTTSGKPPAVSKGLRSQSSDMKEYAQSGTYTNTLERLVKEMEDTQRLDELQKKLQEDIRQGRGIKSPLRTGDQDSTDDGDGLLEEHREFLKKFSVTVDAIPDHHPGEEIFNFLNSGKIFNQYTLDLRDSGFIGESAVEKLILKSGKTDQIFLTTQGFLTTAYHYVQCPVPVLKWLFRMMSVHTDCIVSVQILSTLMEITIRNDTFSDSPVWPWIPSLSDIAAVFFNMGVGFGSLFPLETLQPDFNEENLISETQKTLGGKESEDSPYSPVFSALPETNILNVVKFLGLCTSIHPEGYQDGELMLLILMLFKMSLEKELKQIPLVDFQSLLINLMKNIRDWNTKVHELCLGINELSSHPHNLLWLVQLVPNWTSRGRQLRQCLSLVMMSKLLDEKHEDIPNANNLQISVLHRYLVQMKPSDLLKKMVLKKRAEQPNETIDDSLHLELEKQAYYLTYILLHLVGEVSCSHSLSSGQRKHFVLLCGALEKHVKCDIREDARLFYRTKVKDLVARIHGKWQEIIQNCRPTQGQLHDFWVPDS
In the case of B4, the binding entry in assay [1] is “binds”.

B5: Wdr18 (protein, UniProt Q4VBE8 1-431)
chain: MAAPMEVVVCTDAAAQLWSCVVWELHSGANLLTYRGGQAGPRGLALLNGEYLLAAQQGKNYICAWELQRKDQLQQKIMCPGPVTCLTTAPNGLYVLAGIAESIYLWEVCTGNLLVILSRHYQDVSCLKFTGDGSHFVSAGKDCLALAWSLCSVLQADPSRILAPRHVWSQHTLPITDLHCGFGGPMARVATASLDQTVKLWAISSGDLLLSVLFDMGITSVTMDLAEHHIFCGGSDGSIFQVDLCSWPGLREHSFQPEQNTGKVFKGHRNQVTCLSVSTDGSVLLSGSHDESVRLWDVKSKQCLRTVTLKGPVTNAAIILAPPSMLNPEFRPSLPLPHFNKHLLGAEHGDEAQGGGLRLQLGLHLQGKEPSYLERLEQLQAVLSSYLEKNMLGSQMLPARVFDLEDEVRSLRKINRDLFDFSTRIITRPSK
Take B5: the binding entry in assay [1] is reported as “binds”.

B6: Atp8a1 (protein, UniProt P70704 1-1164)
chain: MPTMRRTVSEIRSRAEGYEKTDDVSEKTSLADQEEVRTIFINQPQLTKFCNNHVSTAKYNVITFLPRFLYSQFRRAANSFFLFIALLQQIPDVSPTGRYTTLVPLLFILAVAAIKEIIEDIKRHKADNAVNKKQTQVLRNGAWEIVHWEKVAVGEIVKVTNGEHLPADLLSLSSSEPQAMCYIETSNLDGETNLKIRQGLPATSDIKDIDSLMRISGRIECESPNRHLYDFVGNIRLDGHGTVPLGADQILLRGAQLRNTQWVHGIVVYTGHDTKLMQNSTSPPLKLSNVERITNVQILILFCILIAMSLVCSVGSAIWNRRHSGKDWYLHLHYGGASNFGLNFLTFIILFNNLIPISLLVTLEVVKFTQAYFINWDLDMHYEPTDTAAMARTSNLNEELGQVKYIFSDKTGTLTCNVMQFKKCTIAGVAYGHVPEPEDYGCSPDEWQSSQFGDEKTFNDPSLLDNLQNNHPTAPIICEFLTMMAVCHTAVPEREGDKIIYQAASPDEGALVRAAKQLNFVFTGRTPDSVIIDSLGQEERYELLNVLEFTSARKRMSVVVRTPSGKLRLYCKGADTVIYERLAETSKYKEITLKHLEQFATEGLRTLCFAVAEISESDFEEWRAVYHRASTSVQNRLLKLEESYELIEKNLQLLGATAIEDKLQDQVPETIETLMKADIKIWILTGDKQETAINIGHSCRLLKRNMGMIVINEGSLDGTRETLSRHCTTLGDALRKENDFALIIDGKTLKYALTFGVRQYFLDLALSCKAVICCRVSPLQKSEVVEMVKKQVKVITLAIGDGANDVSMIQTAHVGVGISGNEGLQAANSSDYSIAQFKYLKNLLMVHGAWNYNRVSKCILYCFYKNIVLYIIEIWFAFVNGFSGQILFERWCIGLYNVMFTAMPPLTLGIFERSCRKENMLKYPELYKTSQNALDFNTKVFWVHCLNGLFHSVILFWFPLKALQYGTVFGNGKTSDYLLLGNFVYTFVVITVCLKAGLETSYWTWFSHIAIWGSIALWVVFFGIYSSLWPAVPMAPDMSGEAAMLFSSGVFWVGLLSIPVASLLLDVLYKVIKRTAFKTLVDEVQELEAKSQDPGAVVLGKSLTERAQLLKNVFKKNHVNLYRSESLQQNLLHGYAFSQDENGIVSQSEVIRAYDTTKQRPDEW
For B6, in assay [1], the binding result is “binds”.

B7: Vti1b (protein, UniProt O88384 1-232)
chain: MAASAASSEHFEKLHEIFRGLLEDLQGVPERLLGTAGTEEKKKLVRDFDENQQEANETLAEMEEELRYAPLTFRNPMMSKLRNYRKDLAKLHREVRSTPLTAAPGGRGDLKYGTYTLENEHLNRLQSQRALLLQGTESLNRATQSIERSHRIATETDQIGTEIIEELGEQRDQLERTKSRLVNTNENLSKSRKILRSMSRKVITNKLLLSVIILLELAILVGLVYYKFFRHH
Regarding B7, the binding entry in assay [2] was “binds”.
